Assay results as given in PubChem BioAssay AID2685 (National Center for Advancing Translational Sciences (NCATS), 2010).
This is one part of the list. The main result of the screen is listed elsewhere. These columns were measured beside it and carry no call. Compounds called inactive in the main read-out are mostly missing here. Potencies come from curve fits of mixed quality, noted in brackets.

Assay: qHTS Assay for Lipid Storage Modulators in Drosophila S3 Cells;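 on cell number change: cells counted by Cell Tracker Red CMTPX staining in the red channel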
Details: BODIPY lipid droplet fluorescence, 18-24 h; for cell number change: measured here: cell count max response, cells fed with added oleic acid
How it was run: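 Laser-scanning cytometry quantifies lipid droplet accumulation (500–530 nm total intensity; droplet/cell object ratio) in oleic acid-fed (400 uM added) Drosophila S3 cells treated with a concentration series. 20 uM Triacsin C defined 100% inhibition.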

[1] = measured here: lipid fluorescence (Fed channel) AC50, cells fed with added oleic acid
[2] = measured here: cell number channel AC50, cells fed with added oleic acid

| SMILES | cell number change [%] | AC50 [1] | AC50 [2] |
| --- | --- | --- | --- |
| CCN(CC)CC(=O)NN=C(c1ccccc1)c1ccccc1 | 12.5 | – | – |
| C[C@@]12C(=O)N(c3cccc(F)c3)C(=O)N1[C@H](c1ccc(Cl)cc1)[C@@H]1C(=O)N(C3CCCCC3)C(=O)[C@@H]12 | 6.53 | 0.651 µM [falling, partial curve, poor fit] | – |
| O=C1NCC(COCc2ccccc2)O1 (stereo not given) | -14.9 | – | 0.731 µM [falling, full curve] |
| CCNc1nc(Cl)nc(NCc2ccccc2)n1 | -1.28 | – | – |
| CC(=O)Nc1ccc(NC(=O)C(C)OC(=O)c2ccc3[nH]c(C)c(C)c3c2)cc1 (stereo not given) | 131 | – | 11.6 µM [rising, partial curve] |
| CCOC(=O)[C@@H]1[C@H]2COc3ccccc3[C@@H]2N2C(=O)N(c3ccc(C)cc3)C(=O)[C@]12C | 2.4 | 23.1 µM [rising, single point] | – |
| O=C1c2ccccc2-n2c1nc1ccccc1c2=O | -11.5 | 0.517 µM [falling, full curve] | – |
| O=C1CN(C(=O)Cn2ncc(Cl)c(Cl)c2=O)c2ccccc2N1 | -3.53 | – | – |
| Cc1nn(C)c(C)c1CNC(=O)/C=C/c1ccccc1F | 27 | 8.2 µM [rising, partial curve] | – |
| COc1ccc(NS(=O)(=O)c2cccc(C(=O)N(C)CC(=O)Nc3ccc(C)cc3)c2)cc1 | -95.8 | – | 11.6 µM [falling, partial curve] |
| O=c1cc(-c2ccccc2)oc2cc(OCc3ccccc3)cc(O)c12 | 15.9 | – | – |
| CCOc1cc(C(=O)Nc2cc(=O)n(C)c(=O)n2C)cc(OCC)c1OCC | 17.4 | – | – |
| COc1ccc(N2CCN(C(=O)c3ccc(CS(=O)(=O)c4ccc(Br)cc4)o3)CC2)cc1 | 62.4 | – | 23.1 µM [rising, single point] |
| O=C(NCc1cccc(C(F)(F)F)c1)C1CC(c2c(Cl)cccc2Cl)=NO1 (stereo not given) | -8.75 | 6.51 µM [falling, partial curve] | 5.8 µM [falling, partial curve] |
| CCCn1c(N2CCN(CC(=O)Nc3ccc4c(c3)OCCO4)CC2)nc2ccccc21 | 43.8 | – | 29.1 µM [rising, single point] |
| CCOC(=O)C1(Cc2ccc(OC)cc2)CCN(C(=O)C2CC(=O)N(C3CC3)C2)CC1 (stereo not given) | -22.2 | – | 1.03 µM [falling, full curve, poor fit] |
| O=C(COC(=O)c1ccccc1Cl)Nc1ccc2[nH]c(=O)[nH]c2c1 | 1.5 | – | – |
| COc1ccc(-c2nnn(CC(=O)c3ccccc3)n2)cc1OC | 14.7 | – | – |
| CC(NC(=O)OCc1ccccc1)C(=O)NCC1CCCO1 (stereo not given) | 91.8 | 1.64 µM [rising, single point] | 23.1 µM [rising, partial curve] |
| CCOc1ccccc1OCC(=O)N/N=C(\C)Cc1ccc(OC)cc1 | – | 29.1 µM [rising, single point] | – |
| O=C(O)CCC(=O)Nc1sc2c(c1C(=O)Nc1cccc3ccccc13)CCCCC2 | -28.3 | 6.51 µM [falling, single point] | – |

Entries from the list above containing four or more nitrogen atoms:

| SMILES | cell number change [%] | AC50 [1] | AC50 [2] |
| --- | --- | --- | --- |
| CCNc1nc(Cl)nc(NCc2ccccc2)n1 | -1.28 | – | – |
| O=C1CN(C(=O)Cn2ncc(Cl)c(Cl)c2=O)c2ccccc2N1 | -3.53 | – | – |
| CCCn1c(N2CCN(CC(=O)Nc3ccc4c(c3)OCCO4)CC2)nc2ccccc21 | 43.8 | – | 29.1 µM [rising, single point] |
| COc1ccc(-c2nnn(CC(=O)c3ccccc3)n2)cc1OC | 14.7 | – | – |

Single values from the results shown:
For AC50 [1], `CCOC(=O)[C@@H]1[C@H]2COc3ccccc3[C@@H]2N2C(=O)N(c3ccc(C)cc3)C(=O)[C@]12C` shows 23.1 µM [rising, single point]
For cell number change [%], `O=c1cc(-c2ccccc2)oc2cc(OCc3ccccc3)cc(O)c12` shows 15.9

Continued.

| SMILES | cell number change [%] | AC50 [1] | AC50 [2] |
| --- | --- | --- | --- |
| CC1(c2ccccc2)CC(C)(C)N2C(=O)Cc3cccc1c32 (stereo not given) | -28 | 29.1 µM [falling, single point] | – |
| Cc1c(NC(=S)SCc2ccccc2)c(=O)n(-c2ccccc2)n1C | -2.44 | 0.103 µM [rising, full curve, poor fit] | – |
| COc1ccc(NC(=O)C2CC(=O)N(C(C)C)C2)cc1 (stereo not given) | 1.07 | 0.13 µM [falling, full curve, poor fit] | – |
| CC(=O)C1=C(C)NC(SCC(=O)c2cc(Cl)ccc2Cl)=C(C#N)C1c1ccco1 (stereo not given) | -35.8 | 29.1 µM [falling, single point] | 11.6 µM [falling, partial curve] |
| CCCCSc1nn[nH]n1 | 4.1 | 1.84 µM [falling, partial curve] | – |
| O=C(N/N=C/c1cccnc1)c1ccccc1NS(=O)(=O)c1cccs1 | -16.8 | – | – |
| COc1ccccc1-n1c(C)nnc1SCC(N)=O | -200 | – | 29.1 µM [falling, single point] |
| CC(=O)c1sc(NC(=O)CCNC(=O)c2ccco2)nc1-c1ccccc1 | 3.97 | 29.1 µM [falling, single point] | 6.51 µM [rising, single point] |
| COCCCNC(=O)CSc1c2c(nc3ccc(Cl)cc13)CCCC2 | 3.21 | 0.58 µM [rising, single point] | – |
| CC(=O)c1ccc(NC(=S)Nc2ccc(Br)c(Cl)c2)cc1 | -51.4 | – | 0.103 µM [falling, full curve, poor fit] |
| CNC(=O)c1nnsc1S(=O)c1ccc(Cl)cc1 (stereo not given) | -46.4 | 29.1 µM [falling, partial curve, poor fit] | 29.1 µM [falling, single point] |
| C=CCN1C(=O)N(c2ccc(Cl)cc2)C(=O)C1CC(=O)Nc1ccc(F)cc1 (stereo not given) | 1.53 | 0.0058 µM [falling, full curve, poor fit] | 7.31 µM [falling, single point] |
| C=CCn1c(SCC(=O)c2c(N)n(CCC)c(=O)n(C)c2=O)nnc1-c1ccncc1 | – | – | 6.51 µM [rising, single point] |
| CCN(c1ccc(OC)cc1)S(=O)(=O)c1nnc(NC(=O)c2ccccc2Cl)s1 | -30.4 | – | 3.66 µM [falling, partial curve] |
| CCOC(=O)c1ccccc1NS(=O)(=O)c1ccccc1 | 17.4 | 0.58 µM [rising, single point] | – |
| CC1CN(S(=O)(=O)c2cccc(C(=O)OC/C(O)=C(\C#N)c3nc4ccccc4[nH]3)c2)CC(C)O1 (stereo not given) | -51.7 | 29.1 µM [falling, single point] | 29.1 µM [falling, single point] |
| CC1CCCN(C(=O)Cn2nnc(-c3cccnc3)n2)C1 (stereo not given) | 33.4 | 10.3 µM [falling, partial curve] | 1.64 µM [rising, full curve] |
| CCC(=O)N(Cc1cc2cc(OC)ccc2[nH]c1=O)c1ccc(C)cc1 | 2.19 | 29.1 µM [falling, single point] | – |
| Cn1c(=O)oc2cc(S(=O)(=O)NCCN3CCN(c4ccccc4F)CC3)ccc21 | -15.1 | 0.206 µM [falling, partial curve] | – |
| Cn1c2ccccc2c2cnn(CC(=O)Nc3ccc(Cl)cc3)c(=O)c21 | 19.6 | 16.4 µM [rising, single point] | – |
| CCN(Cc1nc2ccccc2c(=O)[nH]1)C(=O)C1CC(=O)N(c2cccc3ccccc23)C1 (stereo not given) | 11.9 | 0.00461 µM [falling, full curve, poor fit] | – |

| SMILES | cell number change [%] | AC50 [1] | AC50 [2] |
| --- | --- | --- | --- |
| Cc1ccc(NC(=O)c2cccc3c2-c2ccccc2C3=O)cc1C | 36.4 | – | 29.1 µM [rising, single point] |
| COc1cccc(NC(=O)CN(C)C(=O)c2cc(-c3ccccc3)nc3ccccc23)c1 | 25 | 0.651 µM [rising, partial curve, poor fit] | – |
| CCN(CC)CCCNc1nc(CN2CCOCC2)nc2sc3c(c12)CCC3 | – | 25.9 µM [rising, single point] | – |
| Cc1ccc(OCCn2cc(/C=C(\C#N)C(=O)NCC3CCCO3)c3ccccc32)cc1 (stereo not given) | 21.3 | 16.4 µM [rising, partial curve] | – |
| Cc1cc(C(=O)OCC(=O)N2CCc3ccccc32)ccc1[N+](=O)[O-] | 13.6 | 3.26 µM [falling, single point] | – |
| O=C(CSc1nnc2c3ccccc3c3ccccc3c2n1)Nc1ccccc1F | -5.59 | – | – |
| CC(=O)c1c(C)oc2ccc(N(C(=O)c3ccncc3)S(=O)(=O)c3ccccc3)cc12 | 1.08 | 0.206 µM [rising, partial curve, poor fit] | – |
| COc1ccc(NC(=O)CCC(=O)OCc2ccc([N+](=O)[O-])cc2)cc1 | -19.3 | – | – |
| Cc1cnccc1CN(C)C(=O)C1CCC(=O)N(Cc2ccccc2F)C1 (stereo not given) | 20.5 | 29.1 µM [rising, single point] | – |
| Cc1ccc(OCC(=O)NCCNC(=O)c2ccc(C)nc2)cc1 | 6.96 | – | – |
| O=C(Nc1ccc(S(=O)(=O)NC2=NCCCCC2)cc1)c1ccc([N+](=O)[O-])s1 | -34.3 | – | – |
| C/C(=N\N=C1\NC(=O)C(CC(=O)Nc2ccc(Cl)cc2)S1)c1ccco1 (stereo not given) | -2.07 | 0.731 µM [rising, full curve, poor fit] | – |
| O=C(Nc1ccccc1C(=O)Nc1ccccc1C(=O)NCc1ccco1)c1ccco1 | -10.5 | 0.13 µM [rising, full curve, poor fit] | – |
| CCOc1cc(/C=C2\SC(=N)N(c3nccs3)C2=O)ccc1OCCN1CCOCC1 | -69.1 | 23.1 µM [falling, single point] | 16.4 µM [falling, single point] |
| CC(=O)Nc1ccc(C(=O)OCc2ccc(Cl)c(Cl)c2)cc1 | 5.35 | 3.26 µM [rising, full curve, poor fit] | – |
| Cc1cc2c(cc1S(=O)(=O)N1CCN(c3ccc(Cl)cc3)CC1)OCCN2C | 4.61 | – | – |
| CCOc1cc(N2CCOCC2)c(OCC)cc1NC(=O)COC(=O)c1cc2ccccc2cc1O | 5.89 | 6.51 µM [rising, single point] | – |
| CCCCC(=O)NNC(=S)NC(=O)c1cccc([N+](=O)[O-])c1 | -15.7 | – | – |
| CC1CCC2(CC1)NC(=O)N(CC(=O)c1ccc(CNC(=O)C(C)(C)C)s1)C2=O (stereo not given) | -30.8 | 0.731 µM [falling, full curve] | 2.31 µM [falling, full curve, poor fit] |
